Results deposited as PubChem BioAssay AID493246 (Drosophila RNAi Screening Center, 2011)
The deposit covers about 21,000 reagents; this is a random part of those that have a named target and a result. In the full data, 429 (2%) got an active call. 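Values are raw and not normalised between plates; calls rest on per-plate z-scores that were not deposited.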 Entries without a mark were called inactive. A plus sign joins genes that one reagent is predicted to hit. No sequences are given here. Not stated in the record: the amount of reagent, the time to read-out.

- Assay: 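Genome-wide search for dsRNAs that reduce cell number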 (primary screen)
- System: Drosophila Kc and S2R+ cells
- Reagent: long dsRNA against Drosophila genes
- Measurement: 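Cell number per well after knock-down, printed as raw plate values; calls were based on per-plate z-scores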
- Direction: Kc cell number and S2R+ cell number: higher = more cells remaining
- Hit rule: 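Active when the per-plate z-score of cell number is 3 or more in the direction of fewer cells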

Gene	dsRNA	Kc cell number, rep 1	Kc cell number, rep 2	S2R+ cell number, rep 1	S2R+ cell number, rep 2
Wdfy2	DRSC02822	1.39e6	1.42e6	1.19e6	1.28e6
uif	DRSC00963	1.60e6	1.68e6	1.16e6	1.31e6
uif	DRSC03427	1.56e6	1.43e6	1.08e6	1.23e6
crim	DRSC10573	1.37e6	1.39e6	1.04e6	1.11e6
CIA30	DRSC16266	5.69e5		7.92e5	
Elp3	DRSC00448	1.50e6	1.43e6	1.11e6	1.25e6
CG12093	DRSC08252	1.37e6	1.52e6	1.29e6	1.25e6
CG1774	DRSC15258	4.93e5		7.56e5	
CG16898	DRSC06635	1.49e6	1.55e6	1.14e6	1.32e6
Sap47	DRSC16850	1.61e6	1.69e6	1.26e6	1.42e6
CG16781	DRSC18117	1.45e6	1.50e6	1.10e6	1.20e6
CG15570	DRSC18058	1.53e6	1.50e6	1.02e6	1.10e6
dpr12	DRSC04814	1.44e6	1.52e6	9.56e5	1.06e6
dpr12	DRSC04863	1.79e6	1.88e6	1.26e6	1.30e6
dpr12	DRSC04892	1.51e6	1.83e6	1.48e6	1.46e6
CG10588	DRSC11628	1.36e6	1.56e6	1.30e6	1.38e6
CG34223	DRSC05268	1.48e6	1.44e6	1.00e6	1.11e6
CG9673	DRSC20202	1.69e6	1.73e6	1.11e6	1.22e6
CG13215	DRSC06337	1.78e6	1.79e6	1.45e6	1.60e6
CARPA	DRSC17905	1.56e6	1.49e6	1.11e6	1.24e6
CG33255 (retired record) + hpRNA:CR32205	DRSC09610	1.57e6	1.65e6	1.03e6	1.20e6
CG33255 (retired record) + hpRNA:CR32205	DRSC09611	1.47e6	1.55e6	1.11e6	1.33e6
Fur2	DRSC19817	1.44e6	1.46e6	1.05e6	1.15e6
CG42676	DRSC08227	1.34e6	1.41e6	1.17e6	1.19e6
CG42676	DRSC08392	1.28e6	1.43e6	1.10e6	1.24e6
par-1	DRSC05792	2.38e5 (active)		4.50e5	
par-1	DRSC06098	1.55e6	1.55e6	1.09e6	1.16e6
par-1	DRSC06616	1.46e6	1.56e6	1.05e6	9.58e5
par-1	DRSC07660	1.64e6	1.49e6	9.78e5	1.10e6
par-1	DRSC07661	1.50e6	1.53e6	1.09e6	1.18e6
CG1116	DRSC12166	1.68e6	1.87e6	1.26e6	1.35e6
CG5382	DRSC15786	1.51e6	1.64e6	1.11e6	1.20e6
CG2652	DRSC18501	1.36e6	1.63e6	9.26e5	1.14e6
CG8774	DRSC16445	1.55e6	1.61e6	1.26e6	1.29e6
CG3862	DRSC00631	1.31e6	1.61e6	1.17e6	1.30e6
CG7536	DRSC20050	1.42e6	1.48e6	1.01e6	1.18e6
CG10077	DRSC09691	1.29e6	1.40e6	9.71e5	9.88e5
su(w[a])	DRSC18840	5.17e5		8.01e5	
CG8329	DRSC10978	1.50e6	1.52e6	1.40e6	1.39e6
Srg1	DRSC14640	1.75e6	1.72e6	1.01e6	1.15e6
CG4880	DRSC19923	1.48e6	1.54e6	1.04e6	1.15e6
cdi	DRSC16922	1.52e6	1.56e6	1.21e6	1.26e6
CG42808 + CG42807	DRSC06370	1.37e6	1.43e6	1.15e6	1.13e6
CG42808 + CG42807	DRSC06966	1.51e6	1.58e6	1.25e6	1.35e6
CG17839	DRSC10290	1.43e6	1.51e6	1.38e6	1.48e6
CG17839	DRSC10291	1.51e6	1.72e6	1.21e6	1.36e6
CG7342	DRSC16230	1.44e6	1.55e6	1.14e6	1.17e6
Alp9	DRSC10486	1.41e6	1.45e6	1.25e6	9.77e5
Cyp4g15	DRSC20240	1.54e6	1.55e6	1.00e6	1.11e6
CG17378	DRSC02616	1.55e6	1.35e6	1.13e6	1.25e6
Elo68beta	DRSC09860	1.47e6	1.53e6	1.38e6	1.53e6
CG34426	DRSC09977	1.55e6	1.68e6	1.18e6	1.19e6
nesd	DRSC02099	1.24e6	1.43e6	1.30e6	1.09e6
cola + swif	DRSC06826	1.42e6	1.61e6	1.29e6	1.41e6
CheA46a	DRSC05184	1.47e6	1.51e6	1.00e6	1.10e6
CG8560	DRSC10994	1.37e6	1.43e6	1.16e6	1.14e6
mbc	DRSC16995	1.63e6	1.59e6	9.56e5	1.10e6
CG15695	DRSC15117	1.37e6	1.49e6	1.02e6	1.03e6
Osi19	DRSC12569	1.62e6	1.78e6	1.21e6	1.33e6
CG30053	DRSC07260	1.61e6	1.63e6	1.31e6	1.48e6
Or30a	DRSC03385	1.51e6	1.65e6	1.27e6	1.42e6
Nxt1	DRSC04630	1.62e6	1.77e6	1.26e6	1.39e6
Ate1	DRSC05925	1.54e6	1.47e6	1.17e6	1.22e6
CG6770	DRSC02992	1.48e6	1.48e6	8.51e5	9.71e5
CG18731	DRSC15377	1.49e6	1.50e6	1.04e6	1.06e6
mRpL4	DRSC03562	1.30e6	1.32e6	1.21e6	1.32e6
Edg84A	DRSC12594	1.47e6	1.52e6	1.32e6	1.43e6
Ccp84Ag	DRSC12592	1.50e6	1.61e6	1.36e6	1.50e6
sls	DRSC08528	1.35e6	1.41e6	1.23e6	1.29e6
sls	DRSC08540	1.56e6	1.50e6	9.31e5	1.11e6
sls	DRSC08670	1.63e6	1.02e6	1.01e6	1.23e6
TotB	DRSC15842	1.21e6	1.27e6	1.05e6	1.15e6
Gr10a	DRSC18897	1.48e6	1.70e6	1.12e6	1.26e6
CG46491	DRSC06565	1.31e6	1.31e6	8.88e5	9.19e5
CG46491	DRSC06566	1.49e6	1.57e6	1.15e6	1.24e6

Hits, of those listed so far:
Gene	dsRNA	Kc cell number, rep 1	Kc cell number, rep 2	S2R+ cell number, rep 1	S2R+ cell number, rep 2
par-1	DRSC05792	2.38e5 (active)		4.50e5	
